This is one part of the list.
Legend:
Assay in all cases: log2 fold change, soluble protein after heating vs DMSO (PISA); higher = thermal stabilisation; K562 lysate, 10 uM; active = over 0.2 and 3.5 SD of the protein, either way, in both replicates (recomputed)
[1] = compound: C1=CC=C(C=C1)[C@H](COC2=CC3=C(C=C2)NC(=O)N3)NC(=O)C4=CC=CN(C4=O)CC5=CC(=C(C=C5)F)F
How it was run: (§1)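 The values are log-two fold changes in thermal stability compared with solvent controls and come from duplicates. They were obtained by TMTpro 16plex LC-MS/MS, with channel sums equalised, on the supernatant after 21,000xg for 90 min. That supernatant came from crude K562 extract at 1 mg/mL protein treated with 10 μM compound for 30 min, heated for 3 min across 48°C-58°C, pooled and brought to 0.5% NP-40 at 4°C.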

Amino acid sequences for entries named in this document (tags omitted). A change or cut given only in a name is not applied to a line headed by its entry.
UniProt P49754: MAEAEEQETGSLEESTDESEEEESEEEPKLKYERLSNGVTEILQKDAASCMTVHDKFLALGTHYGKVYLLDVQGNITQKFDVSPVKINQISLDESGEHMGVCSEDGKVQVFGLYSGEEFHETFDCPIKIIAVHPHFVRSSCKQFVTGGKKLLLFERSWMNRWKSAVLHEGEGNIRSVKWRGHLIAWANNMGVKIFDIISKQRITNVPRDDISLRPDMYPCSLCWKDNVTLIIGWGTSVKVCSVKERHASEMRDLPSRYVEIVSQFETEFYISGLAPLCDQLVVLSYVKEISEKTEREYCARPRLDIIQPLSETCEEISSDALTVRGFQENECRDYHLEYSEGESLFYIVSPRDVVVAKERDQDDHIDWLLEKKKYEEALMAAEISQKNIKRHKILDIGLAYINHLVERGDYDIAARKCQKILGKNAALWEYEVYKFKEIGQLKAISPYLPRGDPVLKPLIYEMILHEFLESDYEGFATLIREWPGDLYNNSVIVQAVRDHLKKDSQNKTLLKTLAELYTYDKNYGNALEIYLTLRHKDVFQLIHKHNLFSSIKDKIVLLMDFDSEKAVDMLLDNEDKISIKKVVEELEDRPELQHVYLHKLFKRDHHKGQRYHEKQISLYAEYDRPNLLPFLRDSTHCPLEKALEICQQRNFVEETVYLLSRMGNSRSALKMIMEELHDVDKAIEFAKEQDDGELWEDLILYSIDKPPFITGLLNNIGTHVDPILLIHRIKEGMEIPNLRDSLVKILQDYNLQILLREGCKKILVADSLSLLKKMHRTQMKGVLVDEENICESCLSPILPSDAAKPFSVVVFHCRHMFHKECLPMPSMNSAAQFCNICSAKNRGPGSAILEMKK
UniProt Q9BZH6: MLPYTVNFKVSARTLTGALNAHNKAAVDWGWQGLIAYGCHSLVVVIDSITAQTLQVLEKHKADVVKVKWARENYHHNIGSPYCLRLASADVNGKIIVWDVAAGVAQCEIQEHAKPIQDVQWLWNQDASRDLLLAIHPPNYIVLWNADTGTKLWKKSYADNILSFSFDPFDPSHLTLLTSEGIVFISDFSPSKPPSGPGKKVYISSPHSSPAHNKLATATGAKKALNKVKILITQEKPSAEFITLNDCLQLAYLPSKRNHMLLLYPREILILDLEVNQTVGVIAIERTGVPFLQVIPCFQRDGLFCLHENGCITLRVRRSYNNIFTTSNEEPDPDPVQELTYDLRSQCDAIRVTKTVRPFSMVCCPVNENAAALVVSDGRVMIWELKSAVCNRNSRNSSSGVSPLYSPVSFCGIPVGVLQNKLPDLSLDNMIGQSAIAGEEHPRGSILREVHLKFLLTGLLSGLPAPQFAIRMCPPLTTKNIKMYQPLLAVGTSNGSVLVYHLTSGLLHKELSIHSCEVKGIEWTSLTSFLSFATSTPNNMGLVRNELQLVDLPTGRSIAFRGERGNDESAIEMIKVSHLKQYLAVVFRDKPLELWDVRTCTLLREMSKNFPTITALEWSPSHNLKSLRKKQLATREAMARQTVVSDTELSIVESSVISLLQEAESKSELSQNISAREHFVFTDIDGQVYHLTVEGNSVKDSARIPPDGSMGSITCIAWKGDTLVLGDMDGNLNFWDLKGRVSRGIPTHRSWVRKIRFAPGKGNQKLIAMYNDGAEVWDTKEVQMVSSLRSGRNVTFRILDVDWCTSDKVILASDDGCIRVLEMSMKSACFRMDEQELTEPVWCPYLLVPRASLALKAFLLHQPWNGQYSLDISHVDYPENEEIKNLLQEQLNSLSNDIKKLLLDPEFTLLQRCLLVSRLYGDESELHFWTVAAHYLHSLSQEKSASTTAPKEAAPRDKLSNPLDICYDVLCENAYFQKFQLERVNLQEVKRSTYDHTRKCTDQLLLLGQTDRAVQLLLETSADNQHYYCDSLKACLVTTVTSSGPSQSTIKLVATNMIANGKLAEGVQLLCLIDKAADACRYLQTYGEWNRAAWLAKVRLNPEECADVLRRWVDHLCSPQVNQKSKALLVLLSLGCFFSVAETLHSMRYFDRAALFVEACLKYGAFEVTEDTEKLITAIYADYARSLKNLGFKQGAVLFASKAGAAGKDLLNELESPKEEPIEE
UniProt Q8IWB7: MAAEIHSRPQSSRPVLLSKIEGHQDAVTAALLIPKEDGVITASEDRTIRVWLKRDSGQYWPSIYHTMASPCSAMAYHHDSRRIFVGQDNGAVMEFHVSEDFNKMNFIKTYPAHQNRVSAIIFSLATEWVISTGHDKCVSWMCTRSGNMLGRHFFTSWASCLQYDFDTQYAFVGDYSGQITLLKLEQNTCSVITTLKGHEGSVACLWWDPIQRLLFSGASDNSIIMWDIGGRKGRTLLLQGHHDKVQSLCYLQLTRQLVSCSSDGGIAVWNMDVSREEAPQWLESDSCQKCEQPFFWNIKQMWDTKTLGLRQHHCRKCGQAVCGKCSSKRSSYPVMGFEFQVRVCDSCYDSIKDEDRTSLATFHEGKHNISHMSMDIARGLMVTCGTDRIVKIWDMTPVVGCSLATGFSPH
UniProt O43516: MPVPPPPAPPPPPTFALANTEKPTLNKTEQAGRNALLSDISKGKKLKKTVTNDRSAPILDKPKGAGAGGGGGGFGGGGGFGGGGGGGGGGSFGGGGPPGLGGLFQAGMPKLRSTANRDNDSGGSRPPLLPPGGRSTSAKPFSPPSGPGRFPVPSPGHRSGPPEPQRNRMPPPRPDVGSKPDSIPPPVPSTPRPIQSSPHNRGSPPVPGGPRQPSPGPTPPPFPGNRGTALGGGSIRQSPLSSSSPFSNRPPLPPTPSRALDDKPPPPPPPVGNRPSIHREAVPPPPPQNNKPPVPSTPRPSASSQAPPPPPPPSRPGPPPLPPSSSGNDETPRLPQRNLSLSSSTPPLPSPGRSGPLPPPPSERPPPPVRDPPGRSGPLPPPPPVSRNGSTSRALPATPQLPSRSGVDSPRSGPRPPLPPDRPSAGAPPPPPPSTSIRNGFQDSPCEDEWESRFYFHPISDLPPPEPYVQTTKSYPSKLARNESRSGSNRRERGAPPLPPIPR
UniProt Q9NRW7: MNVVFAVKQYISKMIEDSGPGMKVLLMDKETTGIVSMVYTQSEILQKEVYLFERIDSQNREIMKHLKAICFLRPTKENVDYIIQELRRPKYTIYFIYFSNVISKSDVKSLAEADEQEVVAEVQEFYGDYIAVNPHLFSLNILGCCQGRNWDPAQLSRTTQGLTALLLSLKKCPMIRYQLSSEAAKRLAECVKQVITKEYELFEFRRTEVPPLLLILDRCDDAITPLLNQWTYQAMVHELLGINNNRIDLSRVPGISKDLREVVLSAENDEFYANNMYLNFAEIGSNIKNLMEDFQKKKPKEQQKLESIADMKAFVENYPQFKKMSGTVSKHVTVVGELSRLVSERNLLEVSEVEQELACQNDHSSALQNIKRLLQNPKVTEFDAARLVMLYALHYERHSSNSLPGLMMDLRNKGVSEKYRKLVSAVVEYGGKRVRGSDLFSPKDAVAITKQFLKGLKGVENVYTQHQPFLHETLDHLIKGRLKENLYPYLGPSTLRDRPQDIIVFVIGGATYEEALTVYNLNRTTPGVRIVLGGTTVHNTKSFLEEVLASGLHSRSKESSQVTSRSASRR
UniProt Q8NI36: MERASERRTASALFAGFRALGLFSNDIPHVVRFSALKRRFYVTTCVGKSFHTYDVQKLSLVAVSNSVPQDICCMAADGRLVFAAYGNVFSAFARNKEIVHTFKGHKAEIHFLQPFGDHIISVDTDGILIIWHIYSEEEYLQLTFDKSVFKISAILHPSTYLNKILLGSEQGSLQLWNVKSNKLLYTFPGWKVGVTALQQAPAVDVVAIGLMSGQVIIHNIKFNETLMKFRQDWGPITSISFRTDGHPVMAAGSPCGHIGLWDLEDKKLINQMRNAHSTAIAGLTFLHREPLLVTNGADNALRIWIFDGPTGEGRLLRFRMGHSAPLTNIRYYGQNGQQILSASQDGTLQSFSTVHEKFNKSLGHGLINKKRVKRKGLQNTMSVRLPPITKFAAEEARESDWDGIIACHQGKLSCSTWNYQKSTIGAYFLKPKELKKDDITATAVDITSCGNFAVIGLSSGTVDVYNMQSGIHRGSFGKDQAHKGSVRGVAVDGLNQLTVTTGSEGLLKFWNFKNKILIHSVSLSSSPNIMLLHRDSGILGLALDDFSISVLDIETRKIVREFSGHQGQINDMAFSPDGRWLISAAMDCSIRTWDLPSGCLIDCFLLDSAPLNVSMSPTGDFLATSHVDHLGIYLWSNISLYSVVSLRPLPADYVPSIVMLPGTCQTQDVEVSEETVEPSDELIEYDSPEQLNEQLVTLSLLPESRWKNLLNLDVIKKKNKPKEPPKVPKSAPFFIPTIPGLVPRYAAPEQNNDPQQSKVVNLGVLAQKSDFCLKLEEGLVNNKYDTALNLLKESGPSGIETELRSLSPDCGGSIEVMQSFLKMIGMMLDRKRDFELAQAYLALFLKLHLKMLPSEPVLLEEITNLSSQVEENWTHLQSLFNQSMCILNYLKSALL
UniProt Q2M389: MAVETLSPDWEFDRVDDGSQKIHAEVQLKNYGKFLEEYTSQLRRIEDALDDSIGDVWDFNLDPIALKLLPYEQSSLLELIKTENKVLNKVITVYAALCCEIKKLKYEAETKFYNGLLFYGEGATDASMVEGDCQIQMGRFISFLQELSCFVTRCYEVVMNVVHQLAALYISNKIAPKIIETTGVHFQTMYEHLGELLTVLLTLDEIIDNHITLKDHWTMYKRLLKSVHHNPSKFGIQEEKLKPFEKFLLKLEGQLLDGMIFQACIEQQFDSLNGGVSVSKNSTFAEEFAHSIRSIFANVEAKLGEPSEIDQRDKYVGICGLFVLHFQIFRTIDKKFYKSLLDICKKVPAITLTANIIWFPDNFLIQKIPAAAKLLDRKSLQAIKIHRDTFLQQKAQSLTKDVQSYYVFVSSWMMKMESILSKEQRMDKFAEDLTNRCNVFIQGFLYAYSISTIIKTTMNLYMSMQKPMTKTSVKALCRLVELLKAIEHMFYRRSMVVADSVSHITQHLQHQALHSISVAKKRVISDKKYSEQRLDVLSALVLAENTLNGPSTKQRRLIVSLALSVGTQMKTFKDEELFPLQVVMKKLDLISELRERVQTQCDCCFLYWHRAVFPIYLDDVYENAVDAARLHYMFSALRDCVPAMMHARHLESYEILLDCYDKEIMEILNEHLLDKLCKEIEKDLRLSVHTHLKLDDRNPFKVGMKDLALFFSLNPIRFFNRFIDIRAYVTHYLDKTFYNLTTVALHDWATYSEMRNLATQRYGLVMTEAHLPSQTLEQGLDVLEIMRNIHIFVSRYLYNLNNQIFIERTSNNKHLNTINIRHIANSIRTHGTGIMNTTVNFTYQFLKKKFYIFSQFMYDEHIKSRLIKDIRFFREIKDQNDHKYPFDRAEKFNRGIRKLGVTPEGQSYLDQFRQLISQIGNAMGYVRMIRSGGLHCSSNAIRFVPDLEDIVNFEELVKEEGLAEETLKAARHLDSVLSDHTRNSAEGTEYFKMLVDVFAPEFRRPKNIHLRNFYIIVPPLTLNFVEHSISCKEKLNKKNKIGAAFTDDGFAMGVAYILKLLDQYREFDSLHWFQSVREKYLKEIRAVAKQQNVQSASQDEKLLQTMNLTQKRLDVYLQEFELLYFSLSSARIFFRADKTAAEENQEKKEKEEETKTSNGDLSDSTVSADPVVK
UniProt O94967: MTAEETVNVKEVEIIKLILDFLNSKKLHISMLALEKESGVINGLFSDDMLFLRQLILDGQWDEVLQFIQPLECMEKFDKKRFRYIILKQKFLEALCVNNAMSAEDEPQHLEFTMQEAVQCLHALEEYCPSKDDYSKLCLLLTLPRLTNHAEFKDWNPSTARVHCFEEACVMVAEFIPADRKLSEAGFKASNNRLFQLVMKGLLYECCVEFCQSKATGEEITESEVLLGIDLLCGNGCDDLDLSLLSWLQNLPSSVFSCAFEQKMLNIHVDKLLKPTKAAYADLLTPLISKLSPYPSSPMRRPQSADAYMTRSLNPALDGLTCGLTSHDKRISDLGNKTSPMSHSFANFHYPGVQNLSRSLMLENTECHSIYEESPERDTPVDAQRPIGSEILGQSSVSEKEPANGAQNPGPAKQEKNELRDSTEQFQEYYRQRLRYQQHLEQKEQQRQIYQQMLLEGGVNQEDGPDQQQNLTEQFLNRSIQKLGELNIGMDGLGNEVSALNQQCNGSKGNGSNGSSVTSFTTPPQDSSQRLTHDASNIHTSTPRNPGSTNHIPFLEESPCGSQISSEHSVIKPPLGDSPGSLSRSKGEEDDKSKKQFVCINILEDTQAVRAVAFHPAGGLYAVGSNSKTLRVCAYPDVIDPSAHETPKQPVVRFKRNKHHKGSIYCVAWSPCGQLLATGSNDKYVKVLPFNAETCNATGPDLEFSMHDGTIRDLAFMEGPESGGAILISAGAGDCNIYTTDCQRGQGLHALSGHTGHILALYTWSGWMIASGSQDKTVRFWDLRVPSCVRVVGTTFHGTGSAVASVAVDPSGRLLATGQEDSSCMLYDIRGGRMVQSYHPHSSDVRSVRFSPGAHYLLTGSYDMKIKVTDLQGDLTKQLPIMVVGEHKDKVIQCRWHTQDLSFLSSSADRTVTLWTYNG

[2] = compound: CC1=C(SC2=C1C(=N[C@H](C3=NN=C(N32)C)CC(=O)N)C4=CC=C(C=C4)Cl)C
How it was run: as §1

[3] = compound: CC1=C2C(=CC=C1)N=C(N(C2=O)C3=CC=CC=C3C)CN4C=NC5=C(N=CN=C54)N
How it was run: as §1

[4] = compound: Cc1sc2c(c1C)C(c1ccc(Cl)cc1)=N[C@@H](CC(=O)OC(C)(C)C)c1nnc(C)n1-2
How it was run: as §1

[5] = compound: c1ccc([C@@H]2C[C@H]2NC2CCNCC2)cc1
How it was run: as §1

Measured: log2 fold change

VPS41 (UniProt P49754)
inactive: [1] -0.046 | [2] 0.005 | [3] -0.016 | [4] 0.067 | [5] 0.13

WDR11 (UniProt Q9BZH6)
inactive: [1] -0.13 | [2] 0.073 | [3] 0.033 | [4] -0.051 | [5] -0.157

WDFY1 (UniProt Q8IWB7)
inactive: [1] 0.039 | [2] -0.034 | [3] 0.03 | [4] -0.06 | [5] -0.044

WARS1 (UniProt G3V277)
inactive: [1] 0.071 | [2] -0.143 | [3] 0

Looked up one by one from the list above, 2 records:
WDR11 (UniProt Q9BZH6)
inactive: [1] -0.13 | [2] 0.073 | [3] 0.033 | [4] -0.051 | [5] -0.157

VPS41 (UniProt P49754)
inactive: [1] -0.046 | [2] 0.005 | [3] -0.016 | [4] 0.067 | [5] 0.13

Remaining list, next part.

VLDLR (UniProt P98155)
inactive: [1] 0.017 | [2] 0.037

WIPF1 isoform 3 (UniProt O43516)
inactive: [1] -0.008 | [2] -0.002 | [3] -0.005 | [4] 0.072 | [5] -0.098

VPS45 (UniProt Q9NRW7)
inactive: [1] 0.052 | [2] 0.03 | [3] 0.017 | [4] -0.004 | [5] -0.001

WDR36 (UniProt Q8NI36)
inactive: [1] 0.006 | [2] 0.001 | [3] 0.06 | [4] 0.025 | [5] 0.035

WASHC4 (UniProt Q2M389)
inactive: [1] 0.013 | [2] 0.002 | [3] -0.001 | [4] -0.019 | [5] 0.01

WDR47 (UniProt O94967)
inactive: [1] 0.069 | [2] 0.065 | [3] 0.02 | [4] 0.01 | [5] -0.041

From the supplement of paper PMC10849652
